For part of these data: For at least one compound, name, drawing or mass did not settle the structure. Some entries share one result that the patent states for a list of compounds. Bridge positions count the residues as written; N and C are the ends. Square brackets hold non-standard residues; d marks the D form. Peptide text beside a SMILES is read from it. Oic = O=C(O)[C@@H]1C[C@@H]2CCCC[C@@H]2N1; AllylGly = C=CC[C@H](N)C(=O)O; Nle = CCCC[C@H](N)C(=O)O; Orn = NCCC[C@H](N)C(=O)O
Tests used:
[1] = test system: Sprague-Dawley rats; experiment: Echocardiography (cardiac performance) after s.c. injection; details: s.c. 2 μmol/kg, 3 h post-injection
[2] = target: T1, human APJ (hAPJ) (Homo sapiens, UniProt P35414); experiment: Competitive radioligand binding ([125I][Nle75,Tyr77][Pyr1]-Ape13) on membranes of HEK293 cells stably expressing human APJ; details: Table I; mean ± SEM
T1 construct: expressed in transfected cells; cell membranes
T1 sequence (P35414 1-380): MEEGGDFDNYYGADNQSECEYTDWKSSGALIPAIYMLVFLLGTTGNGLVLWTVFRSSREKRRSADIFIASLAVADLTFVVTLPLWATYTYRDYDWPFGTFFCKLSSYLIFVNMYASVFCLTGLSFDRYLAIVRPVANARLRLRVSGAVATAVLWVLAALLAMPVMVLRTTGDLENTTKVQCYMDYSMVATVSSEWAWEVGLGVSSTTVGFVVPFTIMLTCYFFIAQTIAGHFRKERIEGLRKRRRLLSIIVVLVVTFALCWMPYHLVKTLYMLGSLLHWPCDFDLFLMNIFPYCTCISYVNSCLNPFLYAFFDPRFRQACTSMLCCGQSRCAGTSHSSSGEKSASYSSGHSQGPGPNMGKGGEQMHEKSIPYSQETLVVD
Description: HEK293 cells stably expressing YFP-tagged human APJ were cultured in DMEM medium supplemented with 10% FBS, at 37° C. under a humid atmosphere maintaining 5% CO2. Antibiotic G418 (400 μg/mL) was added to maintain a selection pressure for APJ-expressing cells while penicillin/streptomycin (0.1%) were used to prevent bacterial contamination.
Binding experiments were performed on cell membranes of HEK293 stably expressing the YFP-tagged human APJ receptor. Cells were frozen at −80° C. for storage and quickly thawed right before the experiments (1 min at 37° C.). […] The precipitate (cell membranes) was suspended in binding buffer (50 mM Tris-HCl, 0.2% BSA, pH 7.4). Binding assays were run in 96-well plates. […] (820 Ci/mmol)^3 and test ligand with a range of concentrations from 10^−1 to 10^−11 M in a total volume of 200 μL for 1 h at room temperature.
The incubation mixtures were filtered through a glass fiber filter (Millipore, pre-absorbed of PEI 0.5% for 2 h at 4° C.) to remove unbound ligands, and the filter membranes were washed three times with 170 μL cold binding buffer (4° C.). The γ emission was measured using a 1470 Wizard γ-counter from PerkinElmer (Waltham, USA) (80% efficiency).

SMILES	improvement in FS and CO from baseline [1]	Ki [2] [µM]
CC(C)C[C@@H]1NC(=O)[C@H](CCCNC(=N)N)NC(=O)[C@@H](N)CC=CC[C@@H](C(=O)N[C@@H](CCCCN)C(=O)NCC(=O)N2CCC[C@H]2C(=O)N[C@H](Cc2ccc3ccccc3c2)C(=O)O)NC(=O)[C@H](CO)NC1=O [Compound 43, NH2-c[X-R-L-S-X]c-K-G-P-(D-2Nal)]	22-27%	–
CCCC[C@H](NC(=O)[C@@H]1C[C@@H]2CCCC[C@@H]2N1C(=O)[C@@H]1CC=CC[C@H](N)C(=O)N[C@@H](CCCN)C(=O)N1)C(=O)O [Compound 48, NH2-c[X-O-X]-Oic-Nle] (H-[AllylGly][Orn][AllylGly][Oic][Nle]-OH; staple 1-3)	–	> 10
CC(C)C[C@@H]1NC(=O)[C@H](CCCNC(=N)N)NC(=O)[C@@H](N)CC=CC[C@@H](C(=O)N[C@@H](CCCCN)C(=O)NCC(=O)N2CCC[C@H]2C(=O)N[C@H](Cc2cccc3ccccc23)C(=O)O)NC(=O)[C@H](CO)NC1=O [Compound 42, NH2-c[X-R-L-S-X]c-K-G-P-(D-1Nal)]	22-27%	–
